From publication PMC9916866 (International Journal of Molecular Sciences, 2023)
These are yes or no findings as the source states them, for the method shown. In cells and extracts the contact can be indirect. Some results given as binding are weak or reduced against the parent protein; the word gives no strength.

Molecular target: AT1-YFP (UniProt P30556)
Assay: FRET or BRET

In the case of “Rluc8-β-arrestin 2 (from UniProt P32121 1-409)”, the binding is reported as “binds”.
